These results are taken from US5554640A, “Use of propanolamine derivatives as selective 5-HT1 antagonists” (Eli Lilly and Company, priority 1995, dated 1996).

As usually defined, the IC50 is the concentration that gives 50% inhibition. Higher therefore signals weaker potency in that assay.

The target of the test is T1, serotonin-1A receptor (5-HT1A) (Rattus norvegicus, UniProt P19327).
T1 sequence (P19327 1-422): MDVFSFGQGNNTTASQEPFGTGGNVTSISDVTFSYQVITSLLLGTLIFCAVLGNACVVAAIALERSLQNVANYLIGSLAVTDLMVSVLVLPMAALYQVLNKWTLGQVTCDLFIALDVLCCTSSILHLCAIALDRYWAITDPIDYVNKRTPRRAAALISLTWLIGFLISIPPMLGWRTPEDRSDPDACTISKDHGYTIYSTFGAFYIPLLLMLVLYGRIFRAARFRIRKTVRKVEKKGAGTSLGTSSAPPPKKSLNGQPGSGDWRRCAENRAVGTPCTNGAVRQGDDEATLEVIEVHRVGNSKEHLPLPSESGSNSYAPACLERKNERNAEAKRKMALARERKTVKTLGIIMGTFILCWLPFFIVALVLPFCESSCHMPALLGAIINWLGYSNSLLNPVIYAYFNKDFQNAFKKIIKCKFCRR
The experiment in a line: biochemical. Further details: species or system rat (Sprague-Dawley). Conditions: inhibition of 0.4 nM 3H-8OHDPAT binding, rat cortical membranes, 28 C, 30 minutes, pH 7.4. The protocol:
The compounds of this invention were evaluated in the following tests systems.
Procedure for radioligand receptor assays--Male Sprague-Dawley rats weighing 110-150 g were decapitated and brains were immediately removed. Bovine brains were quickly removed from calf in the slaughterhouse. Cerebral cortices were dissected out at 4° C. and homogenized in 0.32M sucrose. After centrifugation at 1000×g for 10 minutes and then 17,000×g for 20 minutes, a crude synaptosomal fraction was sedimented. The pellet was suspended in 100 volumes of 50 mM tris-HCl buffered at pH 7.4, incubated at 37° C. for 10 minutes, and centrifuged at 50,000×g for 10 minutes. The process was repeated and the final pellet was suspended in ice-chilled 50 mM tris-HCl buffered at pH 7.4.
Binding of ^3 H-8-hydroxy-2- (di-n-propylamino) tetralin(3H-80HDPAT) to serotonin-1A receptor was performed according to the method described by Wong et al., J. Neural Transm. , 71, 207 (1988). […] Radioactivity was measured with a liquid scintillation spectrometer. Specific binding of 3H-80HDPAT is defined as the difference of radioactivity bound in the absence and in the presence of 10 μM spiperone.

The compound `CC(C)NCC(O)COc1cccc2ccccc12` (stereo not shown) [propranolol, reference compound] displayed a half-maximal inhibitory concentration (IC50) of 100 nM.
